Experimental data as given in PubChem BioAssay AID256 (DTP/NCI, 2004).
The list does not hold the whole screen: it is rich in T/C values a quarter to a half above the control, in often repeated tests (any T/C) and in doses without a T/C. Other doses and runs of a compound stand elsewhere. T/C gives the treated animals as a percentage of the vehicle group. Some entries give survivors of the animals treated and no T/C: the source files T/C as zero there, which appears to mark a toxic dose or a test without result, not a measured value. Some doses without a T/C left all or most animals alive at the check, yet need not have been tolerated: the source hardly ever lists a survival T/C far under the control, and the zero likely stands for such cases as well. Survivors were counted at the toxicity check, usually on the fifth day, unless a day is given; later deaths do not show. Schedule codes are those of the source, taken here to give the interval after Q, in days (D) or hours (H), and the number of doses after X. Where survival is the endpoint, this PubChem deposit counts one and a half times the control or more as active, and values a quarter to a half above the control carry no call in these data; other NCI protocols may use other cut-offs. Some T/C values are followed by the survivors on the day toxicity was checked, most often the fifth; where none is given, no animal had died by that day. Some doses were run more than once; the results are listed from low to high.

Tested on: CD2F1 mice, L1210 leukemia ip, survival T/C
Test: NCI In Vivo Anticancer Drug Screen. Data for tumor model L1210 Leukemia (intraperitoneal) in CD2F1 (CDF1) mice
Conditions: higher T/C = longer survival
In short: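 Mice carrying a transplanted tumor received test compound or vehicle alone. The value is the measurement in the treated group divided by that in the vehicle-treated control group.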

[1] = T/C endpoint: mean survival time, dose: 200.0 mg/kg/injection, schedule: Q04DX002 (ip), vehicle: saline with Tween-80
[2] = T/C endpoint: mean survival time, dose: 400.0 mg/kg/injection, schedule: Q04DX002 (ip), vehicle: saline with Tween-80
[3] = T/C endpoint: mean survival time, dose: 100.0 mg/kg/injection, schedule: Q04DX003 (ip), vehicle: saline with Tween-80
[4] = T/C endpoint: mean survival time, dose: 200.0 mg/kg/injection, schedule: Q04DX003 (ip), vehicle: saline with Tween-80
[5] = T/C endpoint: mean survival time, dose: 400.0 mg/kg/injection, schedule: Q04DX003 (ip), vehicle: saline with Tween-80
[6] = T/C endpoint: mean survival time, dose: 100.0 mg/kg/injection, schedule: Q01DX009 (ip), vehicle: saline with Tween-80

For `O=[N+]([O-])c1ccc2ncccc2c1`, the survivor count (T/C endpoint: mean survival time, dose: 100.0 mg/kg/injection, schedule: Q01DX009 (ip), vehicle: other) was 6 of 6, the survivor count (T/C endpoint: mean survival time, dose: 200.0 mg/kg/injection, schedule: Q01DX009 (ip), vehicle: other) was 1 of 6 and the survivor count (T/C endpoint: mean survival time, dose: 400.0 mg/kg/injection, schedule: Q01DX009 (ip), vehicle: other) was 0 of 6.

In the case of `N#CSCN1C(=O)C2CC=CCC2C1=O` (configuration not stated), the survivor count (T/C endpoint: mean survival time, dose: 25.0 mg/kg/injection, schedule: Q04DX003 (ip), vehicle: saline with Tween-80) is reported as 3 of 6.

`O=C(O)/C(O)=C(/O)C(=O)O.[NH-]C1CCCCC1[NH-].[Pt+2]` was tested, and the T/C (T/C endpoint: median survival time, dose: 3.12 mg/kg/injection, schedule: Q04DX003 (ip), vehicle: saline) was 132 % of control, the T/C (T/C endpoint: median survival time, dose: 50.0 mg/kg/injection, schedule: Q04DX003 (ip), vehicle: saline) was 133 % of control and the T/C (T/C endpoint: median survival time, dose: 100.0 mg/kg/injection, schedule: Q04DX003 (ip), vehicle: saline) was 141 and 146 % of control. For the same compound, the survivor count (T/C endpoint: median survival time, dose: 200.0 mg/kg/injection, schedule: Q04DX003 (ip), vehicle: saline) was 6 of 6.

With `CCN(CC)CCC(O)c1ccc2c3ccccc3n(C)c2c1` (configuration not stated) the survivor count [1] was 1 of 3 and the survivor count [2] was 0 of 3.

In the case of `COS(=O)(=O)c1ccc(Cl)c([N+](=O)[O-])c1`, the survivor count [3] is reported as 3 of 6, the survivor count [4] is reported as 0 of 6 and the survivor count [5] is reported as 0 of 6.

For `O=S(=O)(OCCCCCCOS(=O)(=O)c1cccnc1)c1cccnc1`, the T/C (T/C endpoint: mean survival time, dose: 20.0 mg/kg/injection, schedule: Q04DX002 (ip), vehicle: saline with Tween-80) was 146 % of control, the survivor count (T/C endpoint: mean survival time, dose: 40.0 mg/kg/injection, schedule: Q04DX002 (ip), vehicle: saline with Tween-80) was 1 of 3 and the survivor count (T/C endpoint: mean survival time, dose: 100.0 mg/kg/injection, schedule: Q04DX002 (ip), vehicle: saline with Tween-80) was 0 of 3. The survivor count [1] was 0 of 3 and the survivor count [2] was 0 of 3.

In the case of `CC1CN1CC(O)C(O)CN1CC1C` (configuration not stated), the T/C (T/C endpoint: mean survival time, dose: 0.61 mg/kg/injection, schedule: Q04DX003 (ip), vehicle: saline) is reported as 138 % of control, the T/C (T/C endpoint: mean survival time, dose: 0.92 mg/kg/injection, schedule: Q04DX003 (ip), vehicle: saline) is reported as 131 % of control and the survivor count (T/C endpoint: mean survival time, dose: 5.0 mg/kg/injection, schedule: Q01DX009 (ip), vehicle: saline) is reported as 6 of 6. The survivor count (T/C endpoint: mean survival time, dose: 10.0 mg/kg/injection, schedule: Q01DX009 (ip), vehicle: saline) was 3 of 6.

For `O=NN(CCCl)C(=O)NC1[C@H](O)CCC[C@@H]1O` (some centres not stated), the T/C (T/C endpoint: median survival time, dose: 0.32 mg/kg/injection, schedule: Q01DX009 (ip), vehicle: saline) was 126 % of control and the T/C (T/C endpoint: median survival time, dose: 0.62 mg/kg/injection, schedule: Q01DX009 (ip), vehicle: saline) was 139 % of control.

With `CC1NC(=O)OC1(C)c1ccccc1` (configuration not stated) the survivor count [2] was 1 of 3.

In the case of `Nc1c2ccccc2c[n+]2ccccc12`, the survivor count (T/C endpoint: mean survival time, dose: 200.0 mg/kg/injection, schedule: Q04DX003 (ip), vehicle: saline) is reported as 0 of 6 and the survivor count (T/C endpoint: mean survival time, dose: 400.0 mg/kg/injection, schedule: Q04DX003 (ip), vehicle: saline) is reported as 1 of 6.

`CCOC(=O)C(Cc1ccccc1C(=O)NC)c1ccccc1` (configuration not stated) was tested, and the survivor count (T/C endpoint: mean survival time, dose: 100.0 mg/kg/injection, schedule: Q01DX009 (ip), vehicle: saline sonified) was 6 of 6 and the survivor count (T/C endpoint: mean survival time, dose: 200.0 mg/kg/injection, schedule: Q01DX009 (ip), vehicle: saline sonified) was 6 of 6.

`O=C(NCCF)NC1CCSc2ccccc21` (configuration not stated) was tested, and the survivor count (T/C endpoint: mean survival time, dose: 300.0 mg/kg/injection, schedule: Q01DX001 (ip), vehicle: other) was 0 of 6.

`CCN(CC)CCCN(CC(=O)O)CC(=O)O` was tested, and the survivor count (T/C endpoint: mean survival time, dose: 200.0 mg/kg/injection, schedule: Q01DX001 (ip), vehicle: saline) was 1 of 4 and the survivor count (T/C endpoint: mean survival time, dose: 400.0 mg/kg/injection, schedule: Q01DX001 (ip), vehicle: saline) was 0 of 4.

With `CC(C#N)CCCC#N` (configuration not stated) the survivor count [6] was 2 of 6, the survivor count [4] was 0 of 6 and the survivor count [5] was 0 of 6.

For `COc1cc2c(oc(=O)c3cc(C)cc(OC)c32)c2c(C3OC(C)C(O)C(C)(O)C3O)ccc(O)c12` (configuration not stated), the T/C (T/C endpoint: median survival time, dose: 50.0 mg/kg/injection, schedule: Q01DX005 (ip), vehicle: DMSO) was 125 % of control and the T/C (T/C endpoint: median survival time, dose: 200.0 mg/kg/injection, schedule: Q01DX005 (ip), vehicle: DMSO) was 125 % of control.

For `CCC(C(=O)OCCNC1CCCCC1)c1ccccc1` (configuration not stated), the survivor count (T/C endpoint: mean survival time, dose: 150.0 mg/kg/injection, schedule: Q01DX001 (ip), vehicle: saline) was 3 of 6 and the survivor count (T/C endpoint: mean survival time, dose: 300.0 mg/kg/injection, schedule: Q01DX001 (ip), vehicle: saline) was 0 of 6.

`Cc1c2c(ccc3ccccc32)c[n+]2ccccc12` was tested, and the survivor count (T/C endpoint: mean survival time, dose: 25.0 mg/kg/injection, schedule: Q01DX009 (ip), vehicle: saline) was 0 of 6 and the survivor count (T/C endpoint: mean survival time, dose: 50.0 mg/kg/injection, schedule: Q01DX009 (ip), vehicle: saline) was 0 of 6.

With `N[C@H](C(=O)O)[C@@H]1CC(Cl)=NO1` the T/C (T/C endpoint: mean survival time, dose: 1.5 mg/kg/injection, schedule: Q01DX009 (ip), vehicle: saline) was 146 % of control, the T/C (T/C endpoint: mean survival time, dose: 1.56 mg/kg/injection, schedule: Q01DX009 (ip), vehicle: saline) was 137 and 145 % of control and the T/C (T/C endpoint: mean survival time, dose: 3.12 mg/kg/injection, schedule: Q01DX009 (ip), vehicle: saline) was 145 % of control. For the same compound, the T/C (T/C endpoint: mean survival time, dose: 4.0 mg/kg/injection, schedule: Q01DX009 (ip), vehicle: saline) was 138 % of control, the T/C (T/C endpoint: mean survival time, dose: 50.0 mg/kg/injection, schedule: Q04DX003 (ip), vehicle: water) was 146 % of control and the survivor count (T/C endpoint: mean survival time, dose: 200.0 mg/kg/injection, schedule: Q04DX003 (ip), vehicle: water) was 3 of 3. The T/C (T/C endpoint: mean survival time, dose: 400.0 mg/kg/injection, schedule: Q04DX003 (ip), vehicle: water) was 142 % of control, the T/C (T/C endpoint: median survival time, dose: 0.5 mg/kg/injection, schedule: Q01DX009 (ip), vehicle: saline) was 137 % of control and the T/C (T/C endpoint: median survival time, dose: 1.0 mg/kg/injection, schedule: Q01DX009 (ip), vehicle: saline) was 125 % of control. For the same compound, the T/C (T/C endpoint: median survival time, dose: 1.5 mg/kg/injection, schedule: Q01DX009 (ip), vehicle: saline) was 126 and 141 % of control, the T/C (T/C endpoint: median survival time, dose: 2.0 mg/kg/injection, schedule: Q01DX009 (ip), vehicle: saline) was 128 % of control and the T/C (T/C endpoint: median survival time, dose: 3.0 mg/kg/injection, schedule: Q01DX009 (ip), vehicle: saline) was 131 and 137 % of control [8 of 9 alive]. The T/C (T/C endpoint: median survival time, dose: 4.0 mg/kg/injection, schedule: Q01DX009 (ip), vehicle: saline) was 149 % of control, the T/C (T/C endpoint: median survival time, dose: 6.0 mg/kg/injection, schedule: Q01DX009 (ip), vehicle: saline) was 145 % of control and the survivor count (T/C endpoint: median survival time, dose: 16.0 mg/kg/injection, schedule: Q01DX009 (ip), vehicle: saline) was 10 of 10.

`COCC1=Nc2c(ncnc2SCc2ccccc2)NN1` was tested, and the survivor count (T/C endpoint: mean survival time, dose: 200.0 mg/kg/injection, schedule: Q01DX001 (ip), vehicle: other) was 1 of 6 and the survivor count (T/C endpoint: mean survival time, dose: 400.0 mg/kg/injection, schedule: Q01DX001 (ip), vehicle: other) was 0 of 6.

`O=C(CF)[O][Sb]([O]C(=O)CF)([c]1ccccc1)([c]1ccccc1)[c]1ccccc1` was tested, and the survivor count (T/C endpoint: mean survival time, dose: 20.0 mg/kg/injection, schedule: Q01DX009 (ip), vehicle: saline with Tween-80) was 2 of 6, the survivor count [3] was 0 of 6 and the survivor count [4] was 0 of 6. For the same compound, the survivor count [5] was 0 of 6.

With `Nc1nnc[se]1` the T/C (T/C endpoint: mean survival time, dose: 25.0 mg/kg/injection, schedule: Q01DX009 (ip), vehicle: saline with Tween-80) was 125 and 135 % of control, the T/C (T/C endpoint: mean survival time, dose: 50.0 mg/kg/injection, schedule: Q01DX009 (ip), vehicle: saline with Tween-80) was 144 % of control and the survivor count [6] was 6 of 6. The T/C (T/C endpoint: median survival time, dose: 50.0 mg/kg/injection, schedule: Q01DX009 (ip), vehicle: saline with Tween-80) was 134 % of control and the T/C (T/C endpoint: median survival time, dose: 100.0 mg/kg/injection, schedule: Q01DX009 (ip), vehicle: saline with Tween-80) was 125 % of control.

`O=C(CC(O)(C(F)(F)F)C(F)(F)F)c1ccco1` was tested, and the survivor count (T/C endpoint: mean survival time, dose: 200.0 mg/kg/injection, schedule: Q01DX009 (ip), vehicle: saline with Tween-80) was 0 of 6 and the survivor count [5] was 0 of 6.

With `CC1C=C(Br)C(=O)C(n2cnc3c(=O)n(C)c(=O)n(C)c32)O1` (configuration not stated) the survivor count (T/C endpoint: mean survival time, dose: 50.0 mg/kg/injection, schedule: Q01DX005 (ip), vehicle: distilled water + Tween-80) was 0 of 6, the survivor count (T/C endpoint: mean survival time, dose: 100.0 mg/kg/injection, schedule: Q01DX005 (ip), vehicle: distilled water + Tween-80) was 0 of 6 and the survivor count (T/C endpoint: mean survival time, dose: 200.0 mg/kg/injection, schedule: Q01DX005 (ip), vehicle: distilled water + Tween-80) was 0 of 6.
